Measurements published in US20250333388A1, “OXADIAZOLONE COMPOUNDS AND HERBICIDAL COMPOSITIONS AND USES THEREOF” (SHANDONG BINNONG TECHNOLOGY CO., LTD., priority 2023, published 2025).
Some of these results come from one statement about several compounds together.

Experiments:
Format in all cases: in vivo
Settings in all cases: dose of 300 g a.i/ha; post-seedling spray at 2- to 3-leaf stage; visual, 0-100%
[1] = test system: crabgrass; assay: Test of herbicidal activity, post-seedling stem and leaf spray in greenhouse, crabgrass
Protocol: (§1) Seeds of broadleaf weeds (abutilon, Solanum nigrum) or gramineous weeds (crabgrass, barnyard grass) were sown into nutrient soil in plastic cups, respectively, and then covered with soil, compacted, watered, and further cultivated in a greenhouse by conventional methods. The stems and leaves of the weeds were sprayed when the weeds reached the 2- to 3-leaf stage. The test compounds of the present application were dissolved in acetone respectively, followed by addition of Tween 80. The solution was diluted with a certain amount of water to a certain solubility, and then sprayed onto the plants using a spray tower. The test was repeated three times. After drying naturally in the shade, the plants were put in a greenhouse and managed according to conventional methods. The growth and development of weeds were observed, and the control effect of the test agent on weeds was checked visually periodically, which was expressed by 0-100%, with “0” representing no control effect, and “100%” representing complete killing or severe inhibition.

[2] = test system: abutilon; assay: Test of herbicidal activity, post-seedling stem and leaf spray in greenhouse, abutilon
Protocol: as §1

[3] = test system: barnyard grass; assay: Test of herbicidal activity, post-seedling stem and leaf spray in greenhouse, barnyard grass
Protocol: as §1

[4] = test system: Solanum nigrum; assay: Test of herbicidal activity, post-seedling stem and leaf spray in greenhouse, Solanum nigrum
Protocol: as §1

Compound	control effect on crabgrass [1]	control effect on abutilon [2]	control effect on barnyard grass [3]	control effect on Solamum nigrum [4]
CCS(=O)(=O)c1ccc(C(=O)C2C(=O)CCCC2=O)c(Cl)c1Cn1nc(C)oc1=O [Compound 6]	greater than 80%	–	–	–
Cc1nn(Cc2c(S(C)(=O)=O)ccc(C(=O)c3c(C)nn(C)c3O)c2Cl)c(=O)o1 [Compound 58]	greater than 80%	greater than 90%	greater than 80%	greater than 90%
CCS(=O)(=O)c1ccc(C(=O)c2c(C)nn(C)c2OC(=O)c2cc(C)nn2C)c(Cl)c1Cn1nc(C)oc1=O [Compound 224]	greater than 80%	greater than 90%	greater than 80%	greater than 90%
Cc1nn(Cc2c(S(C)(=O)=O)ccc(C(=O)c3c(C4CC4)nn(C)c3OC(=O)c3c(C)nn(C)c3Cl)c2Cl)c(=O)o1 [Compound 201]	–	greater than 90%	greater than 80%	greater than 90%
